Some entries share one result that the patent states for a list of compounds.
Assay: Dissolution test of test tablets (Japanese pharmacopoeia paddle method)
Assay type: physicochemical
Conditions: test tablets 10 mg, pH 6.0 phosphate buffer, paddle 50 rpm, 30 minutes later

| SMILES | release ratio |
| --- | --- |
| O=C1c2ccccc2C(=O)N1[C@@H]1CC[C@@]2(O)[C@H]3Cc4ccc(O)c5c4[C@@]2(CCN3CC2CC2)[C@H]1O5 [Example 2, N-(17-cyclopropylmethyl-4,5α-epoxy-3,14-dihydroxy-morphinan-6β-yl)-phthalimide] | not less than 80% |
| O=C1c2ccccc2C(=O)N1[C@@H]1CC[C@@]2(O)[C@H]3Cc4ccc(O)c5c4[C@@]2(CCN3CC2CC2)[C@H]1O5 [Example 3, N-(17-cyclopropylmethyl-4,5α-epoxy-3,14-dihydroxy-morphinan-6β-yl)-phthalimide] | not less than 80% |
| O=C1c2ccccc2C(=O)N1[C@@H]1CC[C@@]2(O)[C@H]3Cc4ccc(O)c5c4[C@@]2(CCN3CC2CC2)[C@H]1O5 [Example 4, N-(17-cyclopropylmethyl-4,5α-epoxy-3,14-dihydroxy-morphinan-6β-yl)-phthalimide] | not less than 80% |
